Patent publication US20190350200A1, “SYNERGISTIC ANTIMICROBIAL COMPOSITIONS” (JUBILANT LIFE SCIENCES LIMITED, priority 2016, published 2019)

Tested on: Malassezia furfur
Assay: Zone of inhibition, disc diffusion method
Assay type: cell-based
Settings: 48 h
Procedure: The antimicrobial efficacy was determined by measuring zone of inhibition using disc diffusion method against E. Coli, Malassezia furfur, Pseudomonas, Aspergillus niger, Staphylococcus and Candida. […] The culture plates were incubated at 37° C. for 48 hrs and anti-microbial activity was evaluated by observing an area of no growth around the disc. An area of no growth around the swatch is known as a zone of inhibition.

CCCCCCCCCCCCCCCC[n+]1ccccc1 [QAC, Cetyl pyridinium chloride]
zone of inhibition at 0.5 % strength: 16 mm
zone of inhibition at 1 % strength: 20 mm
zone of inhibition at 2 % strength: 30 mm
zone of inhibition at […] strength: 8 mm
